Test results: patent US20250352550A1, “SUBSTITUTED FUROPYRIDINES FOR THERAPEUTIC USE” (MASARYKOVA UNIVERZITA, priority 2022, published 2025)

The chains behind the UniProt entries cited, without tags or fusion partners. Residues count along the entry.
UniProt Q08345, 19-913 limits assumed: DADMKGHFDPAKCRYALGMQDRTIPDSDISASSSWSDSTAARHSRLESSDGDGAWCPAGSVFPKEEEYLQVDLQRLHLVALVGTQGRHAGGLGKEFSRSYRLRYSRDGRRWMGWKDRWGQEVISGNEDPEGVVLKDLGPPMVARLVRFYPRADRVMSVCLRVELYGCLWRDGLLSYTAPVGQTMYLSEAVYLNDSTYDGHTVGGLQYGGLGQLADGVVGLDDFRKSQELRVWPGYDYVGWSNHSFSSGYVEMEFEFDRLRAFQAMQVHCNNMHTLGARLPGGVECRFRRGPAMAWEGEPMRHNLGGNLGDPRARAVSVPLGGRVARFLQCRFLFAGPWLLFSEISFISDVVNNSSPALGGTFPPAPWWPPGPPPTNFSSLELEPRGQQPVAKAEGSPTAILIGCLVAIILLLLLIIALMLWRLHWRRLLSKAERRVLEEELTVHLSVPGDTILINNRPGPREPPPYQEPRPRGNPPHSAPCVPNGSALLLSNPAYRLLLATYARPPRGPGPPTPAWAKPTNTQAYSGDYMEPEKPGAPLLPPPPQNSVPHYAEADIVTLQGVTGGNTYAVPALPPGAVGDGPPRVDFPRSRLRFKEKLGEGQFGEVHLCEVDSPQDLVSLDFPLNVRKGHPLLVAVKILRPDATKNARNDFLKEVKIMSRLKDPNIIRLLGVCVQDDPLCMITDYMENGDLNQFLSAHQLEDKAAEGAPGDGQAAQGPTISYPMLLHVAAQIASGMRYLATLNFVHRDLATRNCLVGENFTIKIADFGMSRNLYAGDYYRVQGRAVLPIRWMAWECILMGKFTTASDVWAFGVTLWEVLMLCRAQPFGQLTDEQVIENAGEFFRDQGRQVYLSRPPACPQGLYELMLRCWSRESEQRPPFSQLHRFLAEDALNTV
UniProt P36888, 27-993 limits assumed: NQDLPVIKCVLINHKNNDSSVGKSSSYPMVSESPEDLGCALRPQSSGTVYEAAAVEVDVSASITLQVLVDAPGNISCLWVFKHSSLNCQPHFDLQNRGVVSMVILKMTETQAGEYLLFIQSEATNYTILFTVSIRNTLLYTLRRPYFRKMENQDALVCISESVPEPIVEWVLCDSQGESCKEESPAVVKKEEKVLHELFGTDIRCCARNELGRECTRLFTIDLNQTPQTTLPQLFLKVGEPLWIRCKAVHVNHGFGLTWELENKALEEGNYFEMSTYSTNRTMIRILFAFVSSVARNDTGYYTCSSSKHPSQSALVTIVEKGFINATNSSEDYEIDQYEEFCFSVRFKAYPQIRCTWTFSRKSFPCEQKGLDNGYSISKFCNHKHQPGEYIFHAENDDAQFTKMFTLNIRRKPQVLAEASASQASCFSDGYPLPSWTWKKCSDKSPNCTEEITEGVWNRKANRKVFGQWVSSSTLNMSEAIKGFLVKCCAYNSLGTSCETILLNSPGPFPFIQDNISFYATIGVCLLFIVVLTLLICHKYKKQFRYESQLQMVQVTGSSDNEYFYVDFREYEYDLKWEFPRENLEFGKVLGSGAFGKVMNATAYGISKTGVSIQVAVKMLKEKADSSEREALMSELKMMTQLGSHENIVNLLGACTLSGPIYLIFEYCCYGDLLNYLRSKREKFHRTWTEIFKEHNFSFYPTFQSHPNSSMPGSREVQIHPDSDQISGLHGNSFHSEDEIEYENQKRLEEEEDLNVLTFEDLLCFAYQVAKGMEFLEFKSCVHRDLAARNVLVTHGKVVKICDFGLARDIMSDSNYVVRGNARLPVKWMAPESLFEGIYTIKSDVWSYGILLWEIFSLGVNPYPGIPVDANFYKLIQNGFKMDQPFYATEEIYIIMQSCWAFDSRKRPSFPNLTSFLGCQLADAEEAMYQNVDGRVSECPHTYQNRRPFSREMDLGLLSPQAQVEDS

Columns and labels:
DDR1 = DDR1 (Homo sapiens, UniProt Q08345); assay: HotSpot radiometric kinase assay (Reaction Biology), DDR1; type: biochemical; details: read-out: DDR1 IC50; 200 nM kinase, substrate IRS1tide 20 μM, 33P-ATP, 120 minutes at room temperature
FLT3 = FLT3 (Homo sapiens, UniProt P36888); assay: HotSpot radiometric kinase assay (Reaction Biology), FLT3; details: read-out: FLT3 IC50; 4 nM kinase, substrate ABLtide 20 μM, 33P-ATP, 120 minutes at room temperature

c1cc(-c2ccncc2)cc(-c2coc3cc(-c4ccc(N5CCNCC5)cc4)cnc23)c1
IC50 (DDR1): 183 nM
IC50 (FLT3): 236 nM

The structures given here were assigned with low confidence; some may be wrong.
